These results are taken from PubChem BioAssay AID2685 (National Center for Advancing Translational Sciences (NCATS), 2010).

Some of the results follow. Further columns of the screen follow, without active or inactive calls. The list favours compounds with an active or inconclusive main result. Words in brackets tell the shape of the fitted curve; partial curves, single points and poor fits give uncertain potencies.

The test is described as follows: qHTS Assay for Lipid Storage Modulators in Drosophila S3 Cells.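 As to cell number change: cells counted by Cell Tracker Red CMTPX staining in the red channel.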 The note with it: BODIPY lipid droplet fluorescence, 18-24 h; for cell number change: measured here: cell count max response, cells fed with added oleic acid. The method, boiled down: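 Laser-scanning cytometry quantifies lipid droplet accumulation (500–530 nm total intensity; droplet/cell object ratio) in oleic acid-fed (400 uM added) Drosophila S3 cells treated with a concentration series. 20 uM Triacsin C defined 100% inhibition.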
On the technique in general: Quantitative high-throughput screening tests each substance at several concentrations.

Where [1] appears, read: measured here: cell number channel AC50, cells fed with added oleic acid.
Setting [2] is: measured here: lipid fluorescence (Fed channel) AC50, cells fed with added oleic acid.

One may read the AC50 as the concentration at which the activity in the assay is half-maximal. Read a high AC50 as weaker potency.

Regarding `Cc1nc(N2CCOCC2)[nH]c(=O)c1C(O)C(Cl)(Cl)Cl` (configuration not stated), the cell number change is -0.136%. In addition, the concentration at half-maximal activity (AC50) under setting [1] was 0.517 µM [falling, full curve].
Take `CCc1nc2ccc(C(=O)N3CCN(c4cccc(C(F)(F)F)c4)CC3)cc2nc1CC`: the cell number change was found to be 39.2%. For the same compound, the AC50 under setting [1] is 2.91 µM [rising, full curve, poor fit]. For the same compound, the AC50 under setting [2] is 6.51 µM [falling, single point].
Turning to `Cc1cc(C)cc(NS(=O)(=O)c2ccc3oc(=O)ccc3c2)c1`, the cell number change worked out at 18.3%. Also, the AC50 under setting [1] was 0.58 µM [rising, full curve, poor fit].
For the compound `CCOCCCN1C(=O)C2C(C(=O)Nc3ccc(OCC)cc3)C3C=CC2(O3)C1C(=O)NC1CCCCC1` (configuration not stated), the cell number change is 1.71%. Also, the AC50 under setting [2] was 29.1 µM [falling, single point].
Take `Cc1nn(CC(=O)N2N=C(C(F)F)CC2(O)C(F)F)c(C)c1[N+](=O)[O-]` (configuration not stated): the cell number change was 30.7%. Further, the AC50 under setting [1] was 29.1 µM [rising, single point]. Further, the half-maximal activity concentration (AC50) under setting [2] is 0.13 µM [falling, full curve].
Regarding `Cc1cccc(C(=O)NNC(=O)Nc2ccccc2)c1`, the cell number change is 37.9%.
With `O=C(NS(=O)(=O)c1ccccc1)c1ccccc1F`, the cell number change is 7.05%. The AC50 under setting [2] is 18.4 µM [falling, partial curve].
In the case of `COc1ccccc1/C=C(/C#N)C(=O)O`, the cell number change was found to be 15.6%. In addition, the AC50 under setting [1] was 0.146 µM [falling, partial curve, poor fit]. The half-maximal activity concentration (AC50) under setting [2] is 2.31 µM [rising, full curve, poor fit].
As for `COc1ccc(S(=O)(=O)N2CCOC2CNC(=O)C(=O)NCc2ccccc2OC)cc1` (configuration not stated), the cell number change was -10.4%. Also, the AC50 under setting [2] is 29.1 µM [rising, single point].
Consider `CCCCc1c(C)nc2ccccc2c1SCCC(=O)O`, for which the cell number change was 6.43%. Also, the AC50 under setting [2] is 0.206 µM [falling, full curve, poor fit].
In the case of `O=C(NC(=S)Nc1cc(S(=O)(=O)N2CCOCC2)ccc1O)c1ccco1`, the cell number change amounted to 22.4%. The AC50 under setting [1] is 0.651 µM [rising, full curve, poor fit]. For the same compound, the AC50 under setting [2] is 1.46 µM [rising, partial curve, poor fit].
With `CCN(CC)CCNC(=O)c1ccc(NC(=O)c2ccc(C(=O)c3ccccc3)cc2)cc1`, the AC50 under setting [2] is 29.1 µM [falling, single point].
With `Clc1cccc(Cc2ccc(Cl)nn2)c1`, the cell number change was 32.7%. Moreover, under setting [1], the AC50 is 2.31 µM [rising, partial curve, poor fit].
As to `O=C(Nc1ccc2c(c1)OCO2)c1ccc(NC2CC2)c([N+](=O)[O-])c1`, the cell number change amounted to 11.4%. For the same compound, under setting [2], the AC50 was 5.17 µM [rising, partial curve, poor fit].
Regarding `O/N=C/c1ccc(-c2cc(Cl)ccc2Cl)o1`, the cell number change is 29.2%. Also, the AC50 under setting [2] is 0.366 µM [rising, full curve, poor fit].
In the case of `O=C(CCl)Nc1c2c(nn1-c1ccccc1)CSC2`, the concentration at half-maximal activity (AC50) under setting [2] is 16.4 µM [falling, partial curve].
As for `Cc1ccc(C)c(NC(=S)N2CCC(NC(=O)c3ccco3)CC2)c1`, the cell number change was -12.9%. Moreover, the AC50 under setting [2] is 29.1 µM [falling, single point].
In the case of `COc1cccc(C(=O)Nc2c(C)nn(-c3ccccc3)c2C)c1`, the half-maximal activity concentration (AC50) is, setting by setting: under setting [1], 0.58 µM [falling, full curve]; under setting [2], 3.66 µM [falling, single point].
For the compound `Cc1ccccc1OCC(=O)NCCC1=CCCCC1`, the cell number change is -43.5%. For the same compound, the AC50 under setting [1] was 5.8 µM [falling, single point]. Besides, under setting [2], the AC50 is 20.6 µM [falling, partial curve, poor fit].
Take `COCc1nc2ccccc2n1Cc1ccccc1C`: the cell number change was -50.2%.
Regarding `CCS(=O)(=O)C1=NSC2=NC(=O)/C(=C\c3ccc(OC(=O)c4ccco4)cc3)C(=N)N21`, the AC50 under setting [2] was 6.51 µM [falling, single point].
As to `Cc1ccc(S(=O)(=O)NC(C(=O)OCC(=O)NC2CCS(=O)(=O)C2)C(C)C)cc1` (configuration not stated), the cell number change was -125%. In addition, the AC50 under setting [1] is 20.6 µM [falling, single point]. For the same compound, the AC50 under setting [2] was 5.17 µM [falling, full curve].
Turning to `Cc1ccc2cc(C)c3nnc(SCC(=O)N4CCCc5ccccc54)n3c2c1C`, the AC50 reads like this: under setting [1], 0.517 µM [rising, single point]; under setting [2], 0.231 µM [rising, full curve, poor fit].
On to `O=C(Nc1ccc2c(c1)OCO2)c1ccc(CN2CCOCC2)cc1`, for which the AC50 was 0.092 µM [rising, full curve, poor fit] under setting [1] and 0.146 µM [rising, full curve, poor fit] under setting [2].
Take `COc1ccccc1C(=O)NNC(=O)c1ccc(F)cc1`: the cell number change was 6.42%. Besides, the concentration at half-maximal activity (AC50) under setting [2] is 3.26 µM [rising, partial curve].
In the case of `C=CCNC(=S)NNC(=O)CC12CC3CC(CC(C3)C1)C2`, the cell number change was -39.4%. The AC50 under setting [1] was 2.31 µM [falling, partial curve]. Also, under setting [2], the AC50 is 1.03 µM [falling, full curve].
With `Cc1ccc(S(=O)(=O)CCC(=O)Nc2cccc(C)c2)cc1`, the cell number change came out at 0.862%.
In the case of `CCC(C)NCCOCCOc1cc(C)c(Cl)c(C)c1` (configuration not stated), the cell number change was found to be 34%. Moreover, the AC50 under setting [2] is 3.26 µM [falling, single point].
With `CCOc1ccc(Nc2nc(N)nc(CSC(=S)N3CCN(c4ccccc4)CC3)n2)cc1`, the cell number change was 15.2%. For the same compound, the AC50 under setting [1] is 0.411 µM [rising, full curve, poor fit].
As for `COc1ccc(Cc2c(O)nc(SCC(=O)N3CCOCC3)[nH]c2=O)cc1`, the cell number change is -8.63%. Also, the AC50 under setting [2] was 1.46 µM [falling, partial curve].
On to `O=C(Nc1c2c(nn1-c1ccc(F)cc1)CS(=O)(=O)C2)c1ccc2c(c1)OCO2`, for which the concentration at half-maximal activity (AC50) under setting [2] was 0.731 µM [rising, single point].
On to `CC(C)[C@H](NC(N)=O)C(=O)Nc1cccc([N+](=O)[O-])c1`, for which the cell number change was -29%.
With `O=C(Oc1c(CN2CCOCC2)cc(Cl)c2cccnc12)c1ccc(F)cc1`, the cell number change was -13.6%.
`Cn1c(=O)n(C)c2cc([N+](=O)[O-])c(N3CCN(C(=O)c4ccc(Cl)cc4)CC3)cc21`: the cell number change was found to be 25.1%. In addition, under setting [2], the AC50 is 20.6 µM [rising, single point].
Consider `Cc1ccccc1Oc1cc(-n2ncc(Cl)c(Cl)c2=O)ncn1`, for which the cell number change is -84.8%. The AC50 under setting [1] is 7.31 µM [falling, partial curve]. Also, the AC50 under setting [2] is 2.91 µM [falling, full curve].
On to `Cc1n[nH]c(=O)nc1Nc1ccc(O)cc1`, for which the cell number change was 11.7%. Further, the AC50 under setting [1] is 2.91 µM [rising, single point]. Besides, the AC50 under setting [2] was 32.6 µM [rising, single point].
Regarding `COc1cc(/C=C/C(=O)O)cc(S(=O)(=O)Nc2ccc3cn[nH]c3c2)c1OC`, the cell number change was determined as 31.6%. Moreover, under setting [1], the AC50 is 16.4 µM [rising, partial curve, poor fit]. Further, under setting [2], the AC50 is 16.4 µM [rising, single point].
Consider `CCNC(=O)CN(c1ccc(C)cc1)S(=O)(=O)c1ccc(SC)cc1`, for which, under setting [2], the AC50 was 0.58 µM [falling, single point].
Regarding `COc1ccc(OC)c(C2=NOC(C(=O)Nc3cccnc3)C2)c1` (configuration not stated), the AC50 under setting [1] is 6.51 µM [rising, partial curve].
Turning to `COc1cccc(C(=O)OCC(=O)Nc2sc3c(c2C(N)=O)CCC3)c1O`, the cell number change was -32%. For the same compound, the AC50 under setting [1] is 7.31 µM [falling, partial curve].
For `CCOC(=O)CN1NC2(CCCCC2)NC1=S`, the cell number change is -46.9%. Moreover, the AC50 under setting [1] was 3.66 µM [falling, full curve]. Further, the AC50 under setting [2] was 4.11 µM [falling, full curve].
Consider `Cc1cccc(CCNS(=O)(=O)c2ccc3c(c2)n(C)c(=O)c(=O)n3C)c1`, for which the cell number change was determined as 29%. The half-maximal activity concentration (AC50) under setting [2] was 5.17 µM [rising, full curve].
With `CCCc1cc2c(=O)c(-c3ccccn3)coc2cc1OC`, the cell number change is 23.8%. The AC50 under setting [1] is 0.92 µM [rising, partial curve]. Further, under setting [2], the AC50 is 2.59 µM [rising, partial curve].
For the compound `COc1cc(OC)cc(OC(=O)C2CCN(C(=O)c3ccc(Cl)cc3)CC2)c1`, the cell number change was -39.3%. For the same compound, the AC50 under setting [1] was 29.1 µM [falling, single point].
In the case of `CC(NC(=O)C(C)(C)C)C(c1cccs1)N1CCOCC1` (configuration not stated), the cell number change turned out to be 0.819%. Moreover, the half-maximal activity concentration (AC50) under setting [2] was 0.651 µM [falling, full curve].
As to `COc1ccc(-c2cc(C(F)(F)F)nc(SCC(=O)N(C)Cc3cnn(C)c3C)n2)cc1OC`, the cell number change was determined as 3.64%.
As to `CCOC(=O)C1C(=O)NC(c2ccccc2)=NC1c1ccc(C(C)C)cc1` (configuration not stated), the cell number change was -43%. Moreover, the AC50 under setting [1] is 25.9 µM [falling, single point]. Under setting [2], the AC50 was 4.61 µM [falling, single point].
With `CCOc1ccc(NC2=C(OC)C(=O)c3ccccc3C2=O)cc1`, the cell number change is -85.6%. For the same compound, the half-maximal activity concentration (AC50) under setting [1] was 32.6 µM [falling, partial curve]. Also, under setting [2], the AC50 was 32.6 µM [falling, partial curve].
For `Cc1cc(C)n2nc(SCC(=O)N3CCN(c4ccc(F)cc4)CC3)nc2n1`, the cell number change was -15.2%. Also, the half-maximal activity concentration (AC50) under setting [2] was 0.058 µM [falling, full curve, poor fit].
As to `COc1ccc(NC(=O)C2C(c3ccccc3)C2(Cl)Cl)c(OC)c1` (configuration not stated), the cell number change stood at 3.67%.
With `COC(=O)CCN(C1CCCCC1)S(=O)(=O)c1ccc(S(=O)(=O)NC2CCCCC2)cc1`, the AC50 under setting [2] was 0.116 µM [falling, full curve, poor fit].
With `O=C(Cc1ccccc1)NCCS(=O)c1ccc(Cl)cc1` (configuration not stated), the cell number change worked out at 22.8%.
As to `COc1cc(OC)c(NC(=O)C2CCCN2C(=O)OCc2ccccc2)cc1Cl` (configuration not stated), the cell number change was found to be 29%. The concentration at half-maximal activity (AC50) under setting [2] was 14.6 µM [rising, partial curve].
Regarding `c1ccc(COn2c(-c3ccccc3)nc3c2CCc2nonc2-3)cc1`, the cell number change was 0.978%. In addition, the concentration at half-maximal activity (AC50) under setting [2] was 0.082 µM [rising, full curve, poor fit].
`CC(C)Oc1ccc(CCNC(=O)CC2C(=O)NCCN2C)cc1` (configuration not stated): the cell number change was found to be 13.9%. Also, the AC50 under setting [2] was 0.103 µM [falling, full curve, poor fit].
`CCOCc1c(C(=O)Nc2ccc3nc(N4CCOCC4)sc3c2)oc2ccccc12`: the cell number change is -21%. Also, the AC50 under setting [2] is 13 µM [falling, partial curve, poor fit].
As for `COc1ccc2[nH]c3nc(SCC(=O)Nc4ccc5c(c4)OCO5)nnc3c2c1`, under setting [1], the AC50 is 6.51 µM [rising, single point].
